Data taken from ChEMBL document CHEMBL3988442, “University of Dundee, Small-Polar-MMV Screening Library” (2021).

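Assay of Toxoplasma gondii numbers, read through their beta-galactosidase reporter with a colour substrate. Tested at 50 µM. Higher reads as fewer parasites (inferred from which compounds were picked for retests). Size under these conditions: about 18,000 compounds, about 170 of them at 50% or above in at least one test.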

Results are given as percent effect. The controls that fix the scale are not given in the record; negative values are as filed. The compounds are a random part of those screened.

structure,Percent Effect
NCC1CC(=O)N(Cc2ccccc2)C1 (stereo not given),-2.71%
CS(=O)(=O)c1ccc(CN)o1,-2.22%
CCOC(=O)C(C)NC(=O)c1cn(C)nc1SC (stereo not given),0.9743%
CN(C)S(=O)(=O)c1cccc(Cn2cncn2)c1,4.246%
CCN1CCN(C(=O)c2ccc(NC(C)=O)cc2)CC1,-13.3%
CC(C)OCCCNC(=O)C1(C)CCCCN1 (stereo not given),-2.132%
CC(=O)c1ccc(C#N)cc1F,20.78%
COCC(C)(N)C(=O)OC (stereo not given),-2.104%
CC1c2ccsc2CCN1C(=O)c1ccncc1 (stereo not given),8.778%
CN1CC(=O)Nc2cccnc21,-4.584%
O=C(CC(F)(F)F)N1CCCC1c1ccncc1 (stereo not given),0.975%
Cc1nc(CC(=O)NC(C)CCn2cccn2)cs1 (stereo not given),-0.6692%
CNCC(O)c1cccnc1 (stereo not given),-10.94%
Cc1cc(NC(=O)CN(C)Cc2ccccc2)no1,-0.9615%
CN1CCN(C)C2(CCN(C(=O)C(C)(C)O)CC2)C1,7.866%
CC(C)(C)OC(=O)N1CCOC(CO)C1 (stereo not given),4.98%
C=C(Br)CN1CCN(C(=O)CN2CCCC2)CC1,-1.645%
O=C(NCCOc1ncccc1Cl)c1cscn1,-1.387%
Cc1nc(C)c(C(=O)N[C@@H]2CCNC[C@H]2O)s1,10.23%
C[C@@H](NCc1csnn1)c1cccc(O)c1,12.13%
CNC(=O)C(C)Sc1nccn1-c1ccc(OC)cc1 (stereo not given),-1.235%
CNc1cc(C(N)=O)c2cccc(Cl)c2n1,-7.655%
NC(=O)NC(=O)CSc1nncs1,-5.379%
CCC(=O)NCc1ccc(-n2cncn2)nc1,2.48%
O=C(CN1CSCC1=O)NCCC1=CCCCC1,-0.8021%
CC(=O)NC(C)c1cccc(N2CCCC2=O)c1 (stereo not given),4.449%
C=C(C)COc1cccc(F)c1C(N)=O,20.4%
CC(C(N)=O)S(=O)(=O)c1ccc2ccccc2c1 (stereo not given),-11.9%
CCNC(=O)C1CN(C(=O)C(O)c2ccc(Br)cc2)C1 (stereo not given),-1.346%
Cc1nc(CN(C)C(=O)NCc2ccccc2)no1,15.27%
Fc1ccc(Cn2ccnn2)c(Cl)c1,-4.953%
CC(C)(C)OC(=O)N1CC(F)(F)CC1CO (stereo not given),10.81%
CCn1ncnc1CN1C[C@H]2CC[C@@H](C1)[C@H]2N(C)C,-12.79%
CCC(C)NC(=O)N1CCCN(C2CC2)CC1 (stereo not given),5.696%
CSCc1ccc(C(=O)NC(C)c2nc(C)c[nH]2)o1 (stereo not given),-10.85%
COCc1ncc(CO)s1,4.591%
O=C1CN(C(=O)CSc2ncccc2Cl)CCN1,21.91%
Cc1ccc2c(c1)nc(CO)n2C,9.866%
COc1cccc(CC(=O)N2CCNC(=O)C2)c1,4.575%
CC(C)(C)NC(=O)N1CCCC(CC(N)=O)C1 (stereo not given),4.891%
O=C(NCCCN1CCCCC1CO)c1cnn[nH]1 (stereo not given),-4.196%
COCCCNCc1ccc2c(c1)n(C)c(=O)n2C,-6.286%
O=C1CN(CC(=O)Nc2c(Cl)cccc2Cl)CCN1,55.2%
CN(CC(=O)NCCCO)C(=O)c1ccccc1,-3.956%
COCC(=O)N1CCCN(Cc2cnn(C)c2)CC1,1.219%
CN(C)CCCNCCCNC(=O)c1ccco1,3.646%
CN(C)C(=O)CSCCCNc1ncccn1,7.088%
OCC1(NCc2ccc(F)c(Cl)c2)CCOCC1,-4.348%
CCOC(=O)C1CCCN(C(=O)c2onc(C)c2Cl)C1 (stereo not given),-69.33%
O=C(Nc1ccccn1)C1Cc2ccccc2O1 (stereo not given),8.008%
CCc1nc(C)c(CNC(=O)CN2CCCC(O)C2)s1 (stereo not given),-6.558%

Repeated from the top, 6 entries:

structure	Percent Effect
NCC1CC(=O)N(Cc2ccccc2)C1 (stereo not given)	-2.71%
CS(=O)(=O)c1ccc(CN)o1	-2.22%
CCOC(=O)C(C)NC(=O)c1cn(C)nc1SC (stereo not given)	0.9743%
CN(C)S(=O)(=O)c1cccc(Cn2cncn2)c1	4.246%
CCN1CCN(C(=O)c2ccc(NC(C)=O)cc2)CC1	-13.3%
CC(C)OCCCNC(=O)C1(C)CCCCN1 (stereo not given)	-2.132%